{"sequences": {"note": "Protein sequences, listed by entry. Tags and fused reporters are not part of them.", "UniProt P27695, whole entry, looked up": "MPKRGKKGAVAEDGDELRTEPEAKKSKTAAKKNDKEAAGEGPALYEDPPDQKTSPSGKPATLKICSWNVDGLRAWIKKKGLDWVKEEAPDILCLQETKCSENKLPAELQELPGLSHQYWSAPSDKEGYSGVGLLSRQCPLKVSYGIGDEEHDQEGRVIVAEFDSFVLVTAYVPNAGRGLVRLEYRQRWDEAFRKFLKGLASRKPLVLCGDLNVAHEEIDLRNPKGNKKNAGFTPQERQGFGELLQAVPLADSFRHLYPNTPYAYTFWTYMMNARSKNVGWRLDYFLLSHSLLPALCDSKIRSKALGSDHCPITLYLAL"}, "source": "PubChem BioAssay AID2517", "about": "(National Center for Advancing Translational Sciences (NCATS), 2010)", "note": "Values joined by “and” are separate entries in the source; they are usually repeats but may differ in a detail not shown here. Equal values may be shown once. In all, about 350,000 compounds went through this assay and about 1,200 (0.34%) were called active. The shares of active, inactive and inconclusive entries below differ from those in the screen. Calls come from the whole dose curve; as a rule, active = well fitted inhibition curve with a large enough effect; inconclusive = small, poorly fitted or top-dose-only effect; inactive = no such curve, though single readings can be large or run the other way. Where the call is inconclusive, the potency comes from a doubtful curve fit. Potency is the fitted concentration of half-maximal effect.", "data": [{"molecular_target": "DNA repair nuclease/redox regulator APEX1 (Homo sapiens) (UniProt P27695)", "assay": "qHTS Assay for Inhibitors of the Human Apurinic/apyrimidinic Endonuclease 1 (APE1); note: nearly all actives have a fitted effect of over 55% in size;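 for activity change, negative = inhibition: plate controls were vehicle for no effect and reference inhibitor for full effect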", "conditions": "recombinant APE1, TAMRA/BHQ-2 abasic DNA cleavage fluorescence; activity change, negative = inhibition: at 65.8 µM (top of the series)", "source_text": "The apurinic/apyrimidinic endonuclease APE1 is the primary mammalian enzyme responsible for the removal of abasic (or AP) sites in DNA and functions centrally in the base excision DNA repair (BER) pathway. […] Thus, targeting APE1 could improve the efficacy of current treatment paradigms by promoting selective sensitization or protection of diseased and normal cells, respectively.\nInhibition of APE1 activity was screened by utilizing double-stranded short substrate containing tetrahydrofuran (THF) abasic site labeled with rhodamine-type fluorophore (TAMRA) at the 5'-end and with non-fluorescent Black Hole Quencher-2 (BHQ-2) at the opposing 3'-end. An increase in the fluorescence intensity due to incision of the abasic site by APE1 was used to measure the enzyme activity.\nNIH Chemical Genomics Center [NCGC]\nNIH Molecular Libraries Probe Centers Network [MLPCN]\nAssay Provider: David M. Wilson, III, National Institute on Aging, NIH\nThree uL of enzyme solution (0.75 nM APE1 final concentration) was dispensed to 1536-well Greiner black solid bottom plates. […] The plates were incubated for 15 min at room temperature, and then 1 uL of substrate solution (50 nM final concentration of TAMRA/BHQ-2) was added to start the reaction. The plates were immediately transferred into ViewLux High-throughput CCD imager (Perkin-Elmer) in order to measure the reaction progress in kinetic mode (three reads every 60 seconds) using 525 nm excitation and 598 nm emission fluorescence protocol. The fluorescence intensity difference between the third and the first time points was used to compute reaction progress. Results were normalized to buffer only columns and NSC13755 positive controls and negative control DMSO treated wells.", "values": [{"molecule": "CC(=O)N1CCC2(CC1)CCN(c1ncccn1)CC2", "activity change, negative = inhibition": "inactive: -2.98%"}, {"molecule": "CC(=O)Nc1ccc(N=Cc2c(O)c(C(=O)Nc3ccccc3)cc3ccccc23)cc1", "Potency": "inconclusive: 1.78 µM [inhibitor, partial curve]"}, {"molecule": "O=C(c1ccc(NC2=NC3CS(=O)(=O)CC3S2)cc1)N1CCN(C(=O)c2ccco2)CC1", "note": "(stereo not drawn)", "Potency": "inconclusive: 3.55 µM [inhibitor, partial curve, poor fit]"}, {"molecule": "Cn1ccc(C(=O)N2CCCc3ccccc32)n1", "Potency": "inconclusive: 50.1 µM [inhibitor, partial curve, poor fit]"}, {"molecule": "CCc1cccc(NC(=O)Nc2ccc3c(c2)OCO3)c1", "Potency": "inconclusive: 20 µM [inhibitor, single point]"}, {"molecule": "CN1CCN(S(=O)(=O)c2ccc(Cc3ccc(S(=O)(=O)N4CCN(C)CC4)cc3)cc2)CC1", "Potency": "inconclusive: 1.78 µM [inhibitor, single point]"}, {"molecule": "N[C@@H](C(=O)O)c1ccc(O)c(C(=O)O)c1", "Potency": "inactive and inconclusive: 6.31 µM [inhibitor, full curve, poor fit]"}, {"molecule": "COc1ccc(C(=O)NC(=S)NC(C)(C)C)cc1Br", "Potency": "inconclusive: 0.0126 µM [inhibitor, full curve, poor fit]"}, {"molecule": "CCn1cc(C(=O)O)c(=O)c2cc(F)c(N3CCNCC3)cc21", "Potency": "inactive"}, {"molecule": "O=C(CSc1nc2ccccc2[nH]1)NCc1ccc2c(c1)OCO2", "Potency": "inconclusive: 31.6 µM [inhibitor, single point]"}, {"molecule": "NC(CCC(=O)NCS(=O)(=O)O)C(=O)O", "note": "(stereo not drawn)", "Potency": "inactive and inconclusive: 35.5 µM [inhibitor, partial curve]"}, {"molecule": "O=C(NC1=NCCS1)C1CCN(S(=O)(=O)c2cc([N+](=O)[O-])ccc2Cl)CC1", "Potency": "inconclusive: 11.9 µM [inhibitor, partial curve]"}, {"molecule": "COc1ccc(C(=O)NC(C(=O)OCC(=O)Nc2sccc2C(N)=O)C(C)C)cc1", "note": "(stereo not drawn)", "activity change, negative = inhibition": "inactive: -26.7%"}, {"molecule": "FC(F)(F)c1ccccc1-c1nc(NCc2cccs2)c2ccccc2n1", "Potency": "inconclusive: 39.8 µM [inhibitor, single point]"}, {"molecule": "O=C(O)c1ccc(-c2ccccc2)[nH]1", "Potency": "inconclusive: 2.51 µM [inhibitor, partial curve]"}, {"molecule": "COC(=O)c1c(NC(=O)c2cccnc2Cl)sc(C(=O)N(C)C)c1C", "Potency": "inconclusive: 39.8 µM [inhibitor, single point]"}, {"molecule": "Cc1cccc(Oc2nc3ccccn3c(=O)c2/C=C(\\C#N)C(=O)NC2CCS(=O)(=O)C2)c1", "note": "(stereo not drawn)", "Potency": "inconclusive: 8.91 µM [inhibitor, single point]"}, {"molecule": "O=C(O)Cc1ccc(C(=O)CSc2ccccc2)s1", "Potency": "inconclusive: 28.2 µM [inhibitor, partial curve]"}, {"molecule": "COc1ccc(/C=C(/NC(=O)c2ccc(OC)c(OC)c2)C(=O)NCCc2c[nH]c3ccccc23)cc1", "Potency": "inconclusive: 0.0398 µM [inhibitor, full curve, poor fit]"}, {"molecule": "Cc1ccnc2c1ccc1c(C)ccnc12", "activity change, negative = inhibition": "inactive: 2.97%"}, {"molecule": "O=C(COC(=O)c1ccc(O)cc1O)NC1CCCCCC1", "Potency": "inconclusive: 21.2 µM [inhibitor, single point]"}, {"molecule": "Cc1ccccc1-n1cnnc1SCC(=O)Nc1cccnc1Cl", "Potency": "inconclusive: 4.47 µM [inhibitor, single point]"}, {"molecule": "COc1ccc(-c2[nH]ncc2CN(C)Cc2ccccn2)c(OC)c1", "Potency": "inconclusive: 28.2 µM [inhibitor, single point]"}, {"molecule": "CC(=O)OCC1=C(C(=O)O)N2C(=O)C(NC(=O)C(C)Cn3cc(Cl)cn3)C2SC1", "note": "(stereo not drawn)", "activity change, negative = inhibition": "inactive: -1.46%"}, {"molecule": "Cc1ccc(NC(=O)CCc2nc3sc4c(c3c(=O)[nH]2)CCCC4)c(Br)c1", "activity change, negative = inhibition": "inactive: -29.9%"}, {"molecule": "CC(=Nc1ccccc1)C1=C(O)CCCC1=O", "Potency": "inconclusive: 10 µM [inhibitor, partial curve, poor fit]"}, {"molecule": "COc1ccc(/C=N/N2C(=O)c3ccccc3C2=O)cc1", "Potency": "inconclusive: 1.12 µM [inhibitor, full curve, poor fit]"}, {"molecule": "COC(=O)c1ccc(CS(=O)(=O)c2ccccc2C)o1", "Potency": "inconclusive: 11.2 µM [inhibitor, partial curve]"}, {"molecule": "O=C(O)CCCN1C(=O)/C(=C\\c2ccc(-c3nc4ccccc4s3)o2)SC1=S", "Potency": "inconclusive: 39.8 µM [inhibitor, single point]"}, {"molecule": "O=C(CCCOc1ccc(Cl)cc1Cl)N/N=C/c1ccccc1O", "activity change, negative = inhibition": "inactive: 1.52%"}, {"molecule": "COc1ccc(COC(=O)N/N=C2/C[C@@H](O)[C@@H](O)[C@@H]3[C@@H]4C(=O)N(C5CCCCC5)C(=O)[C@H]4CC[C@H]23)cc1", "Potency": "inconclusive: 2.82 µM [inhibitor, partial curve, poor fit]"}, {"molecule": "Fc1cccc(CSc2nc3ncccc3[nH]2)c1", "activity change, negative = inhibition": "inactive: -1.41%"}, {"molecule": "C/C=C/OC(=O)NC(c1cccc(C)c1)[C@@]1(C(=O)OCC)CCCC1=O", "note": "(stereo partly drawn)", "Potency": "inconclusive: 4.47 µM [inhibitor, single point]"}, {"molecule": "CC1CCCCC1NS(=O)(=O)c1ccc(S(=O)(=O)NCc2ccncc2)cc1", "note": "(stereo not drawn)", "Potency": "inconclusive: 25.1 µM [inhibitor, single point]"}, {"molecule": "O=C(NCCN1CCOCC1)C1(C(F)(F)F)C/C(=C\\CCO)CCCO1", "note": "(stereo not drawn)", "activity change, negative = inhibition": "inactive: 1.4%"}, {"molecule": "COc1ccc2[nH]cc(CCNc3ncnc4ccc(-c5cccnc5)cc34)c2c1", "activity change, negative = inhibition": "inactive: -6.9%"}, {"molecule": "COCCn1c(SCC(=O)Nc2sccc2C(N)=O)nnc1-c1ccncc1", "activity change, negative = inhibition": "inactive: -2.25%"}, {"molecule": "O=S1(=O)C2CC3CCC2(CN1Cc1ccccc1)O3", "note": "(stereo not drawn)", "activity change, negative = inhibition": "inactive: -2.36%"}, {"molecule": "COc1ccc(CCNC(=O)C(NC(=O)OCc2ccccc2)C(C)C)cc1OC", "note": "(stereo not drawn)", "Potency": "inconclusive: 0.562 µM [inhibitor, full curve, poor fit]"}, {"molecule": "Cn1nnnc1SCC(=O)c1ccco1", "activity change, negative = inhibition": "inactive: 7.94%"}, {"molecule": "Cn1c(-c2ccc(Br)cc2)cnc1NCc1cccnc1", "activity change, negative = inhibition": "inactive: 16.8%"}, {"molecule": "Cc1cccc(C)c1OCC(O)Cn1c2ccccc2c2ccccc21", "note": "(stereo not drawn)", "activity change, negative = inhibition": "inactive: -9.76%"}, {"molecule": "C#CCSc1nc2sc3c(c2c(=O)n1C)CCC3", "Potency": "active: 9.47 µM"}, {"molecule": "Cc1cc(=O)oc2c3c(cc(OCC(=O)N4CCC(C(=O)O)CC4)c12)OC(C)(C)CC3", "activity change, negative = inhibition": "inactive: 34.9%"}, {"molecule": "CC(C)[C@H](NC(=O)C1CCC(CNC(=O)[C@@H]2CCCN2C(=O)OC(C)(C)C)CC1)C(=O)O", "note": "(stereo partly drawn)", "activity change, negative = inhibition": "inactive: -2.83%"}, {"molecule": "CC1(C)Cc2nc(-c3ccccc3)nc(SCC(O)CO)c2CO1", "note": "(stereo not drawn)", "Potency": "inconclusive: 7.94 µM [inhibitor, single point]"}, {"molecule": "Cc1ccc(N=C2NC(=O)/C(=C/C=C/c3ccco3)S2)cc1C", "Potency": "active: 28.2 µM"}, {"molecule": "Cc1cccc(CCNC(=O)c2cccc3c2C(=O)N(C2CCCCC2)C3)c1", "activity change, negative = inhibition": "inactive: -4.75%"}, {"molecule": "CCOC(=O)c1ccc(N2CCCCC2)c(NS(=O)(=O)c2cccc(C(F)(F)F)c2)c1", "Potency": "inconclusive: 3.16 µM [inhibitor, partial curve]"}, {"molecule": "CC(=O)NC1CCCc2c1cnn2-c1ccc(C(C)(C)C)cc1", "note": "(stereo not drawn)", "activity change, negative = inhibition": "inactive: 14%"}, {"molecule": "Cc1cc(CNC(=O)Cc2c(F)cccc2Cl)nn1C", "activity change, negative = inhibition": "inactive: 3.95%"}, {"molecule": "O=C(c1cc2nc(-c3ccco3)cc(C(F)(F)F)n2n1)N1CCN(c2ccc(F)cc2)CC1", "Potency": "inconclusive: 3.98 µM [inhibitor, single point]"}, {"molecule": "CC(CN1c2ccccc2Sc2ccccc21)N(C)C", "note": "(stereo not drawn)", "Potency": "inconclusive: 0.0126 µM [inhibitor, full curve, poor fit]"}, {"molecule": "CC1=CC2=NC(=O)/C(=C\\c3cc(C)n(-c4cccc(Cl)c4)c3C)C(=N)N2O1", "activity change, negative = inhibition": "inactive: -2.66%"}, {"molecule": "C[C@@H](C(=O)Nc1ccc2ccccc2c1)[C@@H]1C[C@@]1(C)[C@@H](NC(=O)c1ccccc1)c1ccccc1", "Potency": "inconclusive: 28.2 µM [inhibitor, partial curve] and inconclusive: 5.62 µM [inhibitor, single point]"}, {"molecule": "Cc1ccccc1N=C/C=C1\\N(C)c2ccccc2C1(C)C", "Potency": "inconclusive: 39.8 µM [inhibitor, single point]"}, {"molecule": "Cc1cccc(-c2nnc(NC(=O)c3cccs3)s2)c1", "Potency": "inconclusive: 3.16 µM [inhibitor, single point]"}, {"molecule": "C=CCc1ccc(OCCOCCOc2ccc(C)cc2[N+](=O)[O-])c(OC)c1", "Potency": "inconclusive: 44.7 µM [inhibitor, single point]"}, {"molecule": "C#CCOCCOCCOCCNc1nc(N2CCN(C(=O)C([C@@H](C)CC)n3cc(C(N)CO)nn3)CC2)nc(N2CCN(C(=O)[C@H](CCC(=O)O)n3cc(C(N)Cc4ccc(O)cc4)nn3)CC2)n1", "note": "(stereo partly drawn)", "Potency": "inconclusive: 39.8 µM [inhibitor, single point]"}, {"molecule": "CC(=O)Nc1ccc2c(COC(=O)CC3Sc4ccccc4NC3=O)cc(=O)oc2c1", "note": "(stereo not drawn)", "Potency": "inconclusive: 25.1 µM [inhibitor, single point]"}, {"molecule": "O=C(COC(=O)/C=C/c1ccc(S(=O)(=O)N2CCc3ccccc32)cc1)NC1CCS(=O)(=O)C1", "note": "(stereo not drawn)", "Potency": "inconclusive: 39.8 µM [inhibitor, single point]"}, {"molecule": "Nc1c(N2CCCC2)cc(Cl)c2nonc12", "Potency": "inconclusive: 35.5 µM [inhibitor, single point]"}, {"molecule": "COc1ccc([N+](=O)[O-])cc1NS(=O)(=O)c1ccc(Cl)c(C(=O)Nc2sc3c(c2C#N)CCCCC3)c1", "Potency": "inconclusive: 44.7 µM [inhibitor, single point]"}, {"molecule": "COc1ccc(NC(=O)CSc2nnc(C)n2Cc2ccccc2)cc1", "activity change, negative = inhibition": "inactive: -1.18%"}, {"molecule": "O=C1S/C(=C/c2ccc(N3CCOCC3)o2)C(=O)N1Cc1ccc(F)cc1", "activity change, negative = inhibition": "inactive: -5.68%"}, {"molecule": "O=C(Nc1cccc([N+](=O)[O-])c1)c1ccc2c(c1)C(=O)N(c1ccccn1)C2=O", "Potency": "inconclusive: 21.2 µM [inhibitor, single point]"}, {"molecule": "O=C(O)Cc1ccc(NCc2ccccc2Cl)cc1", "Potency": "inconclusive: 7.94 µM [inhibitor, single point]"}, {"molecule": "CC(C)[C@H](NS(=O)(=O)c1ccc2c(c1)OCCO2)C(=O)OCC(=O)Nc1cc(Cl)ccc1Cl", "activity change, negative = inhibition": "inactive: 9.6%"}]}]}
